Results are given in words; binding and its absence hold for the method and conditions named. Binding seen in cells or lysates may run through a third protein. These calls come from enrichment with a bait or labelling near it, and not all partners need be listed. Where a sequence is shown, tags or fusion partners need not be part of it.

Experimental findings from doi:10.1101/2021.10.11.462297 are described below.

The assay deals with T1, TRAIP-BirA*-HA (UniProt Q9BWF2).
T1 sequence: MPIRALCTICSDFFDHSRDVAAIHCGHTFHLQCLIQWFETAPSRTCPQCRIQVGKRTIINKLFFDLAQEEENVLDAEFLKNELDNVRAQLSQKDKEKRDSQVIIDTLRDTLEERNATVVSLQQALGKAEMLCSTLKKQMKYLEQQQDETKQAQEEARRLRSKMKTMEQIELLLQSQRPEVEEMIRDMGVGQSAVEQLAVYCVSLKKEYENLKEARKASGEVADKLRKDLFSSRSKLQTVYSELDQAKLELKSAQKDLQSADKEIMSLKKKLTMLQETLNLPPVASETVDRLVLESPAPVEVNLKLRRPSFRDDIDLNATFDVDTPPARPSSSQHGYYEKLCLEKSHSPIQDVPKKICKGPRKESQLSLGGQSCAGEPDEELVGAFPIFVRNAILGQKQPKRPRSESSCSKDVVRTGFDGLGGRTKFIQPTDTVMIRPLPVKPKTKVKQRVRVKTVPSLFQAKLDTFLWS
Description: proximity labelling.
Turning to “AAA-ATPase VCP/p97 (from UniProt P55072 1-806)”, the binding entry was “binds”.
Regarding “PRKDC (DNA-PKcs) (from UniProt P78527 1-4128)”, the binding entry is “binds”.
As to “SMARCA5 (SNF2H), endogenous (from UniProt O60264 1-1052)”, the binding result is “binds”.
“XRCC5 (Ku80), endogenous (from UniProt P13010 1-732)”: the binding result is listed as “binds”.
For “XRCC6 (Ku70) (from UniProt P12956 1-609)”, the binding entry is on record as “binds”.
